Test results reported in US8536187B2 (Gilead Sciences, Inc., priority 2008, dated 2013).
At least one structure is not confirmed: it was looked up by name or label, or the drawing left a doubt.

Columns and labels:
[1] = test system: Huh-7 HCV replicon cells; experiment: CC50 assay (CellTiter-Glo) in Huh-7 HCV replicon cells; format: cell-based, human; conditions: Table 1, 3 days incubation
Procedure: (§1) The anti-HCV activity of the pyrido[3,2-d]pyrimidine derivatives of this invention was tested in a human hepatoma Huh-7 cell line harboring a HCV replicon. The assay comprised the following steps: • Step 1: compound preparation and serial dilution: serial dilution is performed in 50% DMSO in a 384-well plate. A solution containing a compound at 100-fold concentration of the starting final serial dilution concentration was prepared in 50% DMSO and added to the pre-specified wells in column 1 of a polypropylene 384-well plate. The plate was then placed on a Precision 2000 Workstation to start the serial dilution. After the serial dilution, a volume of 2 μL of the solution was transferred from the 384-well plate to a 96-well cell culture plate containing 100 μL of cell media on a Biomek FX Workstation. […] The plate was incubated for 30 minutes at room temperature before the luminescence signal was measured with a TopCount plate-reader. • b) for the CC50 assay, a volume of 100 μL of pre-mixed CellTiter-Glo (Promega, cat.# G7572) solution is added directly to the cell culture in each well of the plate and the luminescence signal is measured with a TopCount plate-reader after 10 minutes of incubation at room temperature.

[2] = test system: HCV replicon in human hepatoma Huh-7 cell line; experiment: Anti-HCV replicon assay, EC50 (luciferase luminescence); format: cell-based; conditions: Table 1; Huh-7 HCV replicon cells, 3 days incubation
Procedure: as §1

COc1ccc(-c2ccc3nc(NCc4ccc(S(N)(=O)=O)cc4)nc(NCC(F)(F)F)c3n2)cc1S(C)(=O)=O [Example 18, 4-{[6-(3-Methanesulfonyl-4-methoxy-phenyl)-4-(2,2,2-trifluoro-ethylamino)-pyrido[3,2-a]pyrimidin-2-ylamino]-methyl}-benzenesulfonamide]
CC50 [1]: > 25 µM | EC50 [2]: < 0.1 µM
